Each number is a percent effect as filed.
How 0% and 100% were set is not recorded. Most values in the screen are low, and negative values occur.
This is an unselected part of the compounds tested.

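Whole-parasite assay of Trypanosoma brucei over 72 hours; the read-out is not stated. Tested at 30 µM. Direction is inferred from retests: higher values go with stronger inhibition. Values scatter widely below zero; nearly all retest evidence comes from the higher of the two concentrations used. Of about 64,000 compounds tested this way, about 940 (1.5%) reached 50% or more in at least one test.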

- CCC1CN(Cc2nnc(C3CC3)o2)CCC(=O)N1Cc1ccccc1 (stereo not given) | -8.08%
- COCC(=O)N1CCC2(C1)c1ccccc1S(=O)(=O)N2CCC(C)C (stereo not given) | -8.593%
- O=C(CCc1cc2n(n1)CCNC2)NCCS(=O)(=O)N1CCCC1 | -63.3%
- CCc1cccc(N2CCC(NC(=O)C3CCOCC3)CC2)c1 | -1.63%
- CCc1nc(C2CCCN2CC(=O)Nc2nncs2)no1 (stereo not given) | 20.56%
- [H][C@@]12CN(Cc3ccco3)C[C@]1([H])OCCN2Cc1cnn(C)c1 | -119.2%
- O=C(CSCc1ccccn1)N(Cc1ccsc1)C1CC1 | 1.575%
- Cc1nn(C)c(C)c1CCC(=O)N1CCCC1Cn1cccn1 (stereo not given) | -16.45%
- CCOc1ccc(C2CCCN2Cc2nnnn2C2CC2)cc1 (stereo not given) | -9.617%
- CN(Cc1ccncc1)C(=O)Nc1cnn(CC2CCCO2)c1 (stereo not given) | -15.65%
- CCOc1ccnc(N2CCN(C(=O)c3ccn(C)c(=O)c3)CC2)n1 | -2.645%
- Cc1ccc2nc3n(c2c1)[C@@H](CNC(=O)c1ccncc1)COC3 | -4.819%
- CCn1ccc2cc(NC(=O)CC3CCCO3)ccc21 (stereo not given) | -6.198%
- CCN1CCCC(NC(=O)c2ccc(C)[nH]c2=O)C1 (stereo not given) | -18.79%
- Cc1ccc(N2CCCC(NCc3cccc4c3OCO4)C2)nn1 (stereo not given) | -29.24%
- COc1ccc(/C=C/CN2CCN(c3ncccc3C(N)=O)CC2)cc1 | -43.45%
- CCn1nc(C)c2ccn(CC(=O)NC3CC3)c(=O)c21 | -19.49%
- CCc1nnc2n1CCN(Cc1ncc(-c3ccc(F)cc3)o1)C2 | 8.274%
- CC(C)Cc1noc(CN2CCC(NC(=O)c3cccs3)CC2)n1 | -1.674%
- Cc1c[nH]c(CN2CCN(C)C3(CCC(=O)N(CC4CC4)CC3)C2)n1 (stereo not given) | -35.56%
- N#CC1COCCN1C(=O)c1ccc2cc[nH]c2c1 (stereo not given) | -7.17%
- COc1cccc2c1OCC(C(=O)N1CCSCC1)C2 (stereo not given) | -15.64%
- O=C(O)C(F)(F)F.O=C(O)C(F)(F)F.O=C(O)C(F)(F)F.[H][C@@]12OCCN(Cc3ccncc3)[C@@]1([H])CC[C@H]2OCCN1CCCC1 | -7.413%
- CSCCC(=O)N1CCCC1c1nnc2n1CCCCC2 (stereo not given) | -18.59%
- CC(=O)NCCC1CCCCN1C(=O)c1cccc(CCC(C)(C)O)c1 (stereo not given) | -0.9255%
- O=C(Cc1cccnc1)NCCSc1ccccc1F | -1.122%
- CC(C)(NCC(=O)NCCC#N)c1ccc2c(c1)OCCO2 | 1.506%
- COCCN(Cc1ccoc1)C(=O)c1ccccc1OC | -3.898%
- O=C(c1ccc(-n2cnnn2)cc1)N1CCCC(n2ccnc2)C1 (stereo not given) | 0.8239%
- Cc1noc2ncc(C(=O)N3CCCC3c3ccncc3)cc12 (stereo not given) | -3.585%
- COc1ccc2c(c1)CC(C(=O)N(C)CCCc1cnn(C)c1)CO2 (stereo not given) | 6.866%
- Cc1n[nH]c(C2CN(Cc3nnc(C4CC4)n3C)CCO2)n1 (stereo not given) | 0.4926%
- CN(C)C[C@H]1C[C@H](CO)CN(C(=O)c2cc(S(N)(=O)=O)ccc2F)C1 | -60.61%
- N#Cc1cccnc1N1CCC(C2CCCCCN2C(N)=O)CC1 (stereo not given) | 5.33%
- Cc1noc(C2CN(CC(=O)NCC3CCCO3)C2)n1 (stereo not given) | 18.9%
- COc1ccc(C(O)CN2CC(n3cc(C)cn3)C2)cc1 (stereo not given) | 6.938%
- O=C(O)C(F)(F)F.[H][C@@]12CN(Cc3ccncc3)CC[C@]1([H])CN(c1cnccn1)C2 | -4.355%
- CCc1cc(C(=O)N2CCCC(c3[nH]ncc3S(C)(=O)=O)C2)no1 (stereo not given) | 9.57%
- [H][C@@]12CCCCCN(C)[C@@]1([H])[C@H](c1ccccc1)CN2C(=O)c1ccccn1 | -11.96%
- CC1N(c2cnn(C)c2)C(=O)COC12CCN(c1ncccn1)CC2.O=C(O)C(F)(F)F (stereo not given) | -2.456%
- COc1ncnc2c1CCN(C(=O)NCc1cccnc1)CC2.O=C(O)C(F)(F)F | -95.55%
- Cc1ccc(CNC2CCCc3c2cnn3C)s1.Cl (stereo not given) | -4.192%
- COc1ccc(-c2ccc(C(=O)O)c(F)c2)c(F)c1 | -48.95%
- COCCN1C(=O)CCC12CCCN(c1ncc(F)cn1)CC2 (stereo not given) | -80.38%
- NC(=O)N1CCCC1COC(=O)c1cc(F)ccc1F (stereo not given) | 1.893%
- CS(=O)(=O)NCCCN1CCCC1c1ccccc1 (stereo not given) | 40.89%

For reference, 5 entries once more:

{"smiles": "CCc1cc(C(=O)N2CCCC(c3[nH]ncc3S(C)(=O)=O)C2)no1", "stereo": "stereo not given", "percent effect": 9.57}
{"smiles": "CCn1ccc2cc(NC(=O)CC3CCCO3)ccc21", "stereo": "stereo not given", "percent effect": -6.198}
{"smiles": "CCC1CN(Cc2nnc(C3CC3)o2)CCC(=O)N1Cc1ccccc1", "stereo": "stereo not given", "percent effect": -8.08}
{"smiles": "COc1ccc(-c2ccc(C(=O)O)c(F)c2)c(F)c1", "percent effect": -48.95}
{"smiles": "COCCN(Cc1ccoc1)C(=O)c1ccccc1OC", "percent effect": -3.898}

The values are deposited in ChEMBL (CHEMBL3988442, “University of Dundee, Small-Polar-MMV Screening Library” (2021)).